Test results published in US20100311660A1.
Results are given in words; binding and its absence hold for the method and conditions named. Some results given as binding are weak or reduced against the parent protein; the word gives no strength.

Target: T1, human NPR-C (human) (UniProt P17342)
T1 sequence (looked up): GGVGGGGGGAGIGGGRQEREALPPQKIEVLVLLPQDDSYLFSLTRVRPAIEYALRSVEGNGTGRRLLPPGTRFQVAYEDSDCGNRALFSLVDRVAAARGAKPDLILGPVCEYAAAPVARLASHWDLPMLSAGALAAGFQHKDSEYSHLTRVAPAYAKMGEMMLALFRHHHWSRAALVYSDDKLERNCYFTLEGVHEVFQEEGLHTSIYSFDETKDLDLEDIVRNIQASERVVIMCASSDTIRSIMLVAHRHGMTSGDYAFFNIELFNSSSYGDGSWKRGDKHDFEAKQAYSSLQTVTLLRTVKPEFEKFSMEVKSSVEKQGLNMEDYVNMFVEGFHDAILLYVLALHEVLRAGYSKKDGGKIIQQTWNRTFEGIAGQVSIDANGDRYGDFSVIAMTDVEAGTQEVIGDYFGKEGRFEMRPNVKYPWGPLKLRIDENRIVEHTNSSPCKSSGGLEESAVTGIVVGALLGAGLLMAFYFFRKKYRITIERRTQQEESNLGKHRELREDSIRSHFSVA
Test: receptor binding assay, methods similar to Fan et al. 2005

binding: binds
Binder: SPKMVQGSGCFGRKMDRISSSSGLGCKGKHPLPPRPPSPIPV [ASBNP.1 polypeptide]
